Source: PubChem BioAssay AID2549 (National Center for Advancing Translational Sciences (NCATS), 2010)
Screen size: about 240,000 compounds; about 1,300 (0.54%) were called active. The inconclusive results got no clear call from the source; some entries with a clear call stand among them for comparison. The call rests on the fitted dose curve; in most records, active means well fitted inhibition curve with a large enough effect; inconclusive means small, poorly fitted or top-dose-only effect; inactive means flat fitted curve, though single readings scatter. A potency beside an inconclusive call is a rough fit, not a confirmed value.
Further: nearly all actives have a fitted effect of over 30% in size.
Potency means the concentration at half of the fitted maximal effect.
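Wherever activity, negative = inhibition is given: plate controls were vehicle for no effect and no enzyme for full effect.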

Protein sequences, listed by entry. Tags and fused reporters are not part of them. Lines headed by an entry give the natural chain unless they say otherwise; changes in a name come on top.
UniProt P46063: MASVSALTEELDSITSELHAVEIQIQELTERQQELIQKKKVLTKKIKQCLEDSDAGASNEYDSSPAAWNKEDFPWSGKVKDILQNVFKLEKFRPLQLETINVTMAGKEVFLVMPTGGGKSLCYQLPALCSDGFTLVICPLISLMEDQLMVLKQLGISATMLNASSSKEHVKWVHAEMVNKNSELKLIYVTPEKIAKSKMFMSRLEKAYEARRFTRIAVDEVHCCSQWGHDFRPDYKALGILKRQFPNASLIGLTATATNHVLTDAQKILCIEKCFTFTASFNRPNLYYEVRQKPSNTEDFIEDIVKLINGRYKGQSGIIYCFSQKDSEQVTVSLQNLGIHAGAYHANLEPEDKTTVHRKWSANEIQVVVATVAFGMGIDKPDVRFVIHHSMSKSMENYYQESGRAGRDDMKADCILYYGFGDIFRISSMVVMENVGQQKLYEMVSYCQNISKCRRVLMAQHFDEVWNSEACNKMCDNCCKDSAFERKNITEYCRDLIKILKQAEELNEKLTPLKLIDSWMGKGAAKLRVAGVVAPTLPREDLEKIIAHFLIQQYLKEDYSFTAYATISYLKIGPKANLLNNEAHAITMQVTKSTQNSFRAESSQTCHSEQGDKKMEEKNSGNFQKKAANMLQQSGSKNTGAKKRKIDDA

Each compound was assayed against ATP-dependent DNA helicase Q1 (Homo sapiens) (UniProt P46063) (assay: qHTS Assay for Inhibitors of RecQ-Like Dna Helicase 1 (RECQ1)). Settings: RECQ1 DNA unwinding, red fluorescence kinetic read; activity, negative = inhibition: at 57.3 µM (top of the series); series mostly up to 57.3 µM.
Outline: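 RECQ1T1 50 nM; forked duplex (20 bp + 30-nt ss tails) 200 nM, ATP 2 mM final; pH 8.0, 2 mM MgCl2, 2.5 ug/ml poly(dI-dC); 15 min compound preincubation; discontinuous kinetic read over 2 h at RT.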
With Cc1noc(NS(=O)(=O)c2ccc(NC(=O)c3cnc4scc(C)n4c3=O)cc2)c1C the Potency was inconclusive: 0.1 µM [inhibitor, full curve, poor fit].
For Cc1ccccc1-c1ccc2ncnc(NCc3cccs3)c2c1, the Potency was inconclusive: 15.8 µM [inhibitor, partial curve].
For CCc1ccc(/C=C/C(=O)c2cc(Br)ccc(=O)c2O)cc1, the Potency was inconclusive: 31.6 µM [inhibitor, single point].
With O=c1c(OC2OC(CO)C(O)C(O)C2OC2OC(CO)C(O)C(O)C2OC2OC(CO)C(O)C(O)C2O)c(-c2ccc(O)c(O)c2)oc2cc(O)cc(O)c12 (stereo not given) the Potency was “inactive”.
In the case of COc1ccc(O)c(/C=N/NC(=O)c2c(C)nnn2-c2nonc2N)c1, the Potency is reported as inconclusive: 28.2 µM [inhibitor, partial curve].
For COc1ccc2cc3cc(C(=O)NCc4ccc5c(c4)OCO5)oc3nc2c1, the Potency was inconclusive: 15.8 µM [inhibitor, single point].
In the case of Cc1ccc(C2=NC(C)(C)NC2=O)cc1, the Potency is reported as “inactive”.
In the case of COc1cccc(-c2nnn(CC(=O)O)n2)c1, the Potency is reported as inconclusive: 3.55 µM [inhibitor, partial curve].
With CS(=O)(=O)c1ccc2nc(NC(=O)c3ccc(NS(=O)(=O)c4ccc(F)c(F)c4)cc3)sc2c1 the Potency was active: 31.6 µM.
CCOC(=O)C1CCCN(c2ccc(NC(=O)c3snc4c(=O)[nH]cnc34)cc2)C1 (stereo not given) was tested, and the Potency was “inactive”.
In the case of CNc1ccc(O)cc1, the Potency is reported as active: 31.6 µM.
For CCC(=O)OCC(=O)Nc1cc(C)c(C)cc1[N+](=O)[O-], the Potency was inconclusive: 6.31 µM [inhibitor, single point].
In the case of Cc1ccc(C(=O)CSc2nnnn2Cc2ccccc2)cc1C, the Potency is reported as inconclusive: 39.8 µM [inhibitor, single point].
CCCn1c(N)c(C(=O)CSc2nc3ccccc3s2)c(=O)[nH]c1=O was tested, and the Potency was inconclusive: 1.41 µM [inhibitor, full curve, poor fit].
For CCCn1c(C)cc(C(=O)COC(=O)c2cc(S(=O)(=O)NCC(C)C)c(Cl)cc2Cl)c1C, the Potency was inconclusive: 0.0251 µM [inhibitor, full curve, poor fit].
In the case of c1ccc(Cc2nnc3sc(-c4ccco4)nn23)cc1, the Potency is reported as inconclusive: 35.5 µM [inhibitor, single point].
COc1ccc(/C=N/NC(=O)COc2cccc3cccnc23)cc1OC was tested, and the Potency was “inactive”.
Oc1ccc(Nc2nc(N3CCCC3)c3ccccc3n2)cc1 was tested, and the Potency was inconclusive: 22.4 µM [inhibitor, single point].
For COc1ccc(CCCc2n[nH]c(=S)o2)cc1C, the Potency was inconclusive: 6.31 µM [inhibitor, single point].
COc1cccc(OCc2cc(/C=N/NC(=O)c3ccn[nH]3)ccc2OC)c1 was tested, and the Potency was inconclusive: 6.31 µM [inhibitor, single point].
For CCC(=O)Nc1ccccc1C(=O)OCC(=O)c1cccc2ccccc12, the Potency was inconclusive: 39.8 µM [inhibitor, single point].
With O=Nc1c(-c2c(O)[nH]c3cc(Br)ccc23)[nH]c2ccccc12 the Potency was active: 28.2 µM.
With COC(=O)C[C@H]1c2ccccc2C2=C(C[C@@H](C)[C@H]3C(=O)NC(=O)[C@@H]23)N1C(=O)OC the activity, negative = inhibition was inactive: 10.1% [at 11.5 µM].
For Cc1ccc(-c2n[nH]c(=S)n2/N=C/C=C/c2ccccc2[N+](=O)[O-])cc1, the Potency was inconclusive: 39.8 µM [inhibitor, single point].
In the case of O=C1c2ccccc2C(=O)c2c(NCCCN(CCO)CCO)cccc21, the Potency is reported as active: 20 µM.
With O=C(CSc1ccc(-c2ccco2)nn1)NCc1ccc2c(c1)OCO2 the Potency was active: 28.2 µM.
O=C(NNC(=O)C1C2CCCCC21)c1coc(=O)c(Br)c1 (stereo not given) was tested, and the Potency was inconclusive: 39.8 µM [inhibitor, single point].
For Cc1sc(NC(=S)NC(=O)CCc2ccccc2)c(C(N)=O)c1C, the Potency was inconclusive: 3.55 µM [inhibitor, full curve].
With Cc1ccc(NC(=O)C2CCN(S(=O)(=O)c3c(C)noc3/C=C/c3ccco3)CC2)nc1 the Potency was active: 35.5 µM.
For CCOc1ccc(N2CSC3=C(C#N)C(c4ccco4)CC(=O)N3C2)cc1 (stereo not given), the Potency was inconclusive: 39.8 µM [inhibitor, single point].
In the case of Cn1nnnc1SCC1=C(C(=O)O)N2C(=O)[C@@H](NC(=O)[C@H](O)c3ccccc3)[C@H]2SC1, the Potency is reported as “inactive”.
Cc1c2n(c3ccccc13)CC/C2=N\O was tested, and the Potency was inconclusive: 8.91 µM [inhibitor, single point].
For COc1ccc(NC(=O)CSc2nc(O)cc(=O)n2-c2ccccc2OC)cc1, the Potency was inconclusive: 35.5 µM [inhibitor, single point].
CCN(CC)Cc1cc2[nH]c3c4ccc(Cl)cc4ncc3c2cc1OC was tested, and the Potency was “inactive”.
With Cc1ccc(/C=C/C(=O)N2CCc3ccccc32)o1 the Potency was inconclusive: 39.8 µM [inhibitor, single point].
In the case of N[C@@H](CCCCNC(=O)CCCC[C@@H]1SC[C@H]2NC(=O)N[C@H]12)C(=O)O, the Potency is reported as “inactive”.
CCn1c(CSc2n[nH]c(N)n2)nc2cc(C(=O)O)ccc21 was tested, and the Potency was active: 31.6 µM.
With OCCN1CCN(CCCN2c3ccccc3Sc3ccc(Cl)cc32)CC1 the Potency was inconclusive: 35.5 µM [inhibitor, partial curve].
With O=C(NCc1ccco1)c1cc2ccc(O)cc2oc1=O the Potency was inconclusive: 39.8 µM [inhibitor, single point].
In the case of Cc1cc(C)c2c(=O)n(CC(=O)Nc3ccc(Cl)cc3)sc2n1, the Potency is reported as “inactive”.
With Cn1c(-c2ccc(F)cc2)cnc1SCC(=O)NCc1ccco1 the Potency was inconclusive: 39.8 µM [inhibitor, single point].
For CC(=O)OC1CCC2(C)C(COc3ccc4ccc(=O)oc4c3)C(C)(O)CCC2C1(C)C (stereo not given), the Potency was inconclusive: 39.8 µM [inhibitor, single point].
O=C(Cn1cccc1C(=O)c1ccccc1)NCc1ccc(Cl)cc1 was tested, and the Potency was inconclusive: 7.08 µM [inhibitor, partial curve].
In the case of COc1ncc2nc(-c3ccccc3)c(=O)n(C)c2n1, the Potency is reported as “inactive”.
With O=C(Nc1ccc(Cl)cc1)Nc1ccccc1CC[N+](=O)[O-] the Potency was “inactive”.
